Our source for the binding values is article PMC4682817, “The Cardiac Stress Response Factor Ms1 Can Bind to DNA and Has a Function in the Nucleus”.

Results are given in words; binding and its absence hold for the method and conditions named.

For the assay, the target named is Ms1 actin binding domain 2 (ABD2, residues 294-375) (rat) (UniProt Q8K4K7). Description: NMR 15N relaxation (R1/R2 ratios, rotational correlation time); ABD2 alone in solution; 298 K, pH 7.2, 188-500 uM protein, 20 mM sodium phosphate pH 7.0, 50 mM NaCl, 2 mM DTT, 0.02% NaN3; both purified.

B1: Ms1 actin binding domain 2 (ABD2, residues 294-375) (domain or fragment, UniProt Q8K4K7 294-375)
chain: KRAEEHIYREIMELCFVIRTMARHRRDGKIQVTFGELFDRYVRISDKVVGILMRARKHGLVHFEGEMLWQGKDDHVVITLLE
With B1, the binding result was “no binding (tested: between 188 μM and 500 μM)”.
